The text below walks through data of patent US7517658B2, “Methods for preparing compositions using a SNORF33 receptor” (H. Lundbeck A/S, priority 1999, dated 2009).

Protein sequences, listed by entry. Tags and fused reporters are not part of them.
UniProt Q923Y8, whole entry: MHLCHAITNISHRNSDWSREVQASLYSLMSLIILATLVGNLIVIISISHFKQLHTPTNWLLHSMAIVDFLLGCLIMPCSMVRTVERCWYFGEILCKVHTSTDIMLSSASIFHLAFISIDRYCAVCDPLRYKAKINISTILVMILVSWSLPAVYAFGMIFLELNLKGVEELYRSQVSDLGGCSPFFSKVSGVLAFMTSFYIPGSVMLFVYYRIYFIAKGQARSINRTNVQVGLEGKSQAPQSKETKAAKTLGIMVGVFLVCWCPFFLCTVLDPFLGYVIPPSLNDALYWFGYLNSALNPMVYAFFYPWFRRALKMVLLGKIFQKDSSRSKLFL
UniProt Q96RJ0, whole entry: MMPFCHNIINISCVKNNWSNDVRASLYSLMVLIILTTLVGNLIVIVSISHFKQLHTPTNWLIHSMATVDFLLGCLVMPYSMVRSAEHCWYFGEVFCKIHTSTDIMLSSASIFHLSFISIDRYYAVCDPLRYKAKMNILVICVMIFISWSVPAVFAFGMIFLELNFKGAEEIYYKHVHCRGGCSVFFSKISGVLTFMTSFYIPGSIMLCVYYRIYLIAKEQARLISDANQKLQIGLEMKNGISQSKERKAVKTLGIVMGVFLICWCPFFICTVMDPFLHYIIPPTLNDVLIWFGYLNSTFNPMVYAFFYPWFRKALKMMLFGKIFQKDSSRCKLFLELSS

The target of one assay is mouse SNORF33 (Mus musculus, UniProt Q923Y8). The assay is described as follows: [3H]-TYR binding (saturation and displacement) to mouse SNORF33 COS-7 membranes. Conditions: read-out: Kd, saturation binding, tested as the radiolabelled form.
Another assay deals with human SNORF33 (Homo sapiens, UniProt Q96RJ0). The assay is described as follows: [3H]-TYR binding (saturation and displacement) to human SNORF33 COS-7 membranes. The following applies: read-out: Kd, saturation binding, tested as the radiolabelled form.

Not every entry of the source has a single result; some have several. They are shown here; other results are not. The source may hold further records. The values listed for one entry do not match, cause unknown; they may come from other doses, times, organisms or constructs than stated.

`NCCc1ccc(O)cc1`: the Kd at mouse SNORF33 was 16.2 nM and 7.3 nM; at human SNORF33 it was 27.9 nM and 11.8 nM.
